In experiment [1] the target is SMAD3, endogenous (human (endogenous in Rv1, C4-2, LN95)) (UniProt P84022). Nature of the experiment: co-IP; endogenous proteins in Rv1 or LN95 cells (Supplementary Figure S4B).
In experiment [2] the target is Flag-SMAD3 ΔN, lacking the MH1 domain (133-425) (UniProt P84022). Nature of the experiment: co-IP; Flag- and myc-tagged proteins co-expressed in 293T cells; Flag IP, western blot with Flag or myc antibodies. (In general: Immunoblotting shows a protein as a band on a membrane.)

Sequences of proteins named here, by UniProt entry; tags and fusion partners are left off. A change or cut given only in a name is not applied to a line headed by its entry. A line that says so, or that is headed by a name, gives the form on record, which may keep a tag or linker. Residues count along the entry.
UniProt P84022: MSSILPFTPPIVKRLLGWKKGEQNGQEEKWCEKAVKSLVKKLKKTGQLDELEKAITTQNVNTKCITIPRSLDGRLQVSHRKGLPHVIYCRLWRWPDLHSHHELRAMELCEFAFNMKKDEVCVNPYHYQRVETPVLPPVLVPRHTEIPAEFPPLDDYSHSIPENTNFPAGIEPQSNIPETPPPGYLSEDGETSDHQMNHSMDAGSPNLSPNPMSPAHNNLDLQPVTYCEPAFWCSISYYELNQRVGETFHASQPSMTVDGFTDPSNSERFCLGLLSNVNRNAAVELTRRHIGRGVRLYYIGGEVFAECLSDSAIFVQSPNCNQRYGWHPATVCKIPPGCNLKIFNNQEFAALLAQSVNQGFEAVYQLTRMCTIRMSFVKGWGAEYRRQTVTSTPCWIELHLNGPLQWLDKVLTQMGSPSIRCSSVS
Flag-SMAD3 ΔN, lacking the MH1 domain (133-425): residues 133-425 of P84022
UniProt P10275: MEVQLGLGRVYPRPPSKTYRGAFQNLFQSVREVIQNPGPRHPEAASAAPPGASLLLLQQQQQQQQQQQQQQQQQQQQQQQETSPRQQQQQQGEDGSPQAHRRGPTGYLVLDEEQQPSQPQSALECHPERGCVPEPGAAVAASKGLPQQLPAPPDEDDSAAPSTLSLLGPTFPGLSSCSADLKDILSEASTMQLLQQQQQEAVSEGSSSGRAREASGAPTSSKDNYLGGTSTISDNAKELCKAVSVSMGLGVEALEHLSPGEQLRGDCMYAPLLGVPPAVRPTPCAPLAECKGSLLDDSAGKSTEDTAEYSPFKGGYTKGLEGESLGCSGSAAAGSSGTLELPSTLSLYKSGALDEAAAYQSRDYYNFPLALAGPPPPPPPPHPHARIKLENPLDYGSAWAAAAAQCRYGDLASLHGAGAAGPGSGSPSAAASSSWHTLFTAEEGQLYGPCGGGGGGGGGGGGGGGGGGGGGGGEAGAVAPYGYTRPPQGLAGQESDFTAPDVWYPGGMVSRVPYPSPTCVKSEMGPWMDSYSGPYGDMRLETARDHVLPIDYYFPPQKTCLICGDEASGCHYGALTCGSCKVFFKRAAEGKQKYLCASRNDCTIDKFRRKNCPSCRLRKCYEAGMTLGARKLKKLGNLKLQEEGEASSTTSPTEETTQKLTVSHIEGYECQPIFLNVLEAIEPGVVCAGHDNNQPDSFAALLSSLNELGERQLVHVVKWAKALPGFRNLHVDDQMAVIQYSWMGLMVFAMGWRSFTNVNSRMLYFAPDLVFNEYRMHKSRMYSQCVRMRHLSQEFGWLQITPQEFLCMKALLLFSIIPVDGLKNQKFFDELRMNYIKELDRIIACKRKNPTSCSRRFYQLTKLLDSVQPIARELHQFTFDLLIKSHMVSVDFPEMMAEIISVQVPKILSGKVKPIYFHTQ
AR-V7, endogenous (P10275-3, form named): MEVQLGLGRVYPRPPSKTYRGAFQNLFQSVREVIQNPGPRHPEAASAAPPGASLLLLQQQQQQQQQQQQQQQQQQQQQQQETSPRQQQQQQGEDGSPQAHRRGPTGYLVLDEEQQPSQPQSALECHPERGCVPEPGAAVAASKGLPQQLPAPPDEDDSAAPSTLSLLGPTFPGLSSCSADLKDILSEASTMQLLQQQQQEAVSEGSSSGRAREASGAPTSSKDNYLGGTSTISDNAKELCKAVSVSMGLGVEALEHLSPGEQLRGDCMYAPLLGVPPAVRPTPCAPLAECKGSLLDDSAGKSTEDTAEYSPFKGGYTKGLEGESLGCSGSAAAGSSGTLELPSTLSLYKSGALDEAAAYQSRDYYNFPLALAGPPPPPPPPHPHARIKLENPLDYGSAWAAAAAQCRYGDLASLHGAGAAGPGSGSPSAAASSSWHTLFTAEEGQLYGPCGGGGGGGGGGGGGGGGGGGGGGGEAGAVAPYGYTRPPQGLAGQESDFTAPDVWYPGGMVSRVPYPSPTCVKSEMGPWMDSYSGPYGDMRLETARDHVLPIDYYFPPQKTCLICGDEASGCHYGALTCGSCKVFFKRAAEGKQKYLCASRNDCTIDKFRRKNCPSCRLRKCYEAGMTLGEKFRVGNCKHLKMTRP

These are yes or no findings as the source states them, for the method shown. Binding seen in cells or lysates may run through a third protein. Some binding calls cover weakened binding; strength is not graded here.

With “AR-V7, endogenous (from UniProt P10275-3 1-644)”, the binding entry in experiment [1] is “binds”. In the case of Myc-AR (from UniProt P10275 1-920), the binding entry in experiment [2] is on record as “binds”.

(Values after article PMC10085708.)
